Measurements: patent US20250249120A1 (CHILDREN S HEALTH CARE D B A CHILDREN S MINNESOTA, published 2025)
No constants are given. Whether binding was seen depends on the method and setting. Some binding calls cover weakened binding; strength is not graded here.

Assays:
[1] = molecular target: T1, CD179a (VpreB1) component of the pre-BCR surrogate light chain, on B-ALL cells (human) (UniProt P12018); test: flow cytometry, 36 Day 0 primary B-ALL samples
T1 sequence (looked up): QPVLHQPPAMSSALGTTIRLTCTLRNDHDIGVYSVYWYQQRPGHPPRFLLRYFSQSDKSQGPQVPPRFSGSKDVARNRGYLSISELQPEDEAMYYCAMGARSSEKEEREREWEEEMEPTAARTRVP

[2] = molecular target: T1, CD179a (VpreB1) component of the pre-BCR surrogate light chain, on B-ALL cells (human); test: flow cytometry, primary B-ALL Day 1/Day 28 pairs
[3] = molecular target: T1, CD179a (VpreB1) component of the pre-BCR surrogate light chain, on B-ALL cells (human); test: flow cytometry, primary B-ALL samples
[4] = molecular target: T1, CD179a (VpreB1) component of the pre-BCR surrogate light chain, on B-ALL cells (human); test: flow cytometry on Nalm6, REH, SEM, PDX B1 and PDX B2 cells
[5] = molecular target: T1, CD179a (VpreB1) component of the pre-BCR surrogate light chain, on B-ALL cells (human); test: flow cytometry, end-induction samples, COG MRD Panel

binding [1]: binds | binding [2]: binds | binding [3]: binds | binding [4]: binds | binding [5]: binds
B1: recombinant FITC-conjugated mAb against CD179a (CD179a IgG1/kappa construct) (antibody, V domains shown)
VH: EVQLVESGGGLVKPGGSLRLSCAASGFTFSNFEMNWVRQAPGKGLEWVSGISSNGRYINYADSVKGRFTISRDNAKNSLYLQMNSLRAEDTAVYYCARVVDFDQDYNGFDYWGQGTLVTVSS
VL: DIQLTQSPSFLSASVGDRVTITCRASQGISTDLNWYQQKPGKAPKLLIYAASNLESGVPSRFSGSGSGTEFTLTISSLQPEDFATYYCQQSYNWPYTFGGGTKVEIKR
modifications: FITC label (Abcam conjugation kit), labelled residues not stated
